Laboratory results as given in the supplement of paper PMC11006884.
The list shows a part of the results, in another mix than the full data.

By UniProt entry, the sequences of proteins in these tests, tags left out. Where a name states a change or a piece, a line headed by the entry shows the natural chain unless it says otherwise.
UniProt Q6GMV3: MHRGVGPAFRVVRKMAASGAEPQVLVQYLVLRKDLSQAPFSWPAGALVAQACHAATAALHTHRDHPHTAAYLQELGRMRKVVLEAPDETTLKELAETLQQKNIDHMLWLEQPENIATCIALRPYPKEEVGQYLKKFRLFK
UniProt Q5VUA4: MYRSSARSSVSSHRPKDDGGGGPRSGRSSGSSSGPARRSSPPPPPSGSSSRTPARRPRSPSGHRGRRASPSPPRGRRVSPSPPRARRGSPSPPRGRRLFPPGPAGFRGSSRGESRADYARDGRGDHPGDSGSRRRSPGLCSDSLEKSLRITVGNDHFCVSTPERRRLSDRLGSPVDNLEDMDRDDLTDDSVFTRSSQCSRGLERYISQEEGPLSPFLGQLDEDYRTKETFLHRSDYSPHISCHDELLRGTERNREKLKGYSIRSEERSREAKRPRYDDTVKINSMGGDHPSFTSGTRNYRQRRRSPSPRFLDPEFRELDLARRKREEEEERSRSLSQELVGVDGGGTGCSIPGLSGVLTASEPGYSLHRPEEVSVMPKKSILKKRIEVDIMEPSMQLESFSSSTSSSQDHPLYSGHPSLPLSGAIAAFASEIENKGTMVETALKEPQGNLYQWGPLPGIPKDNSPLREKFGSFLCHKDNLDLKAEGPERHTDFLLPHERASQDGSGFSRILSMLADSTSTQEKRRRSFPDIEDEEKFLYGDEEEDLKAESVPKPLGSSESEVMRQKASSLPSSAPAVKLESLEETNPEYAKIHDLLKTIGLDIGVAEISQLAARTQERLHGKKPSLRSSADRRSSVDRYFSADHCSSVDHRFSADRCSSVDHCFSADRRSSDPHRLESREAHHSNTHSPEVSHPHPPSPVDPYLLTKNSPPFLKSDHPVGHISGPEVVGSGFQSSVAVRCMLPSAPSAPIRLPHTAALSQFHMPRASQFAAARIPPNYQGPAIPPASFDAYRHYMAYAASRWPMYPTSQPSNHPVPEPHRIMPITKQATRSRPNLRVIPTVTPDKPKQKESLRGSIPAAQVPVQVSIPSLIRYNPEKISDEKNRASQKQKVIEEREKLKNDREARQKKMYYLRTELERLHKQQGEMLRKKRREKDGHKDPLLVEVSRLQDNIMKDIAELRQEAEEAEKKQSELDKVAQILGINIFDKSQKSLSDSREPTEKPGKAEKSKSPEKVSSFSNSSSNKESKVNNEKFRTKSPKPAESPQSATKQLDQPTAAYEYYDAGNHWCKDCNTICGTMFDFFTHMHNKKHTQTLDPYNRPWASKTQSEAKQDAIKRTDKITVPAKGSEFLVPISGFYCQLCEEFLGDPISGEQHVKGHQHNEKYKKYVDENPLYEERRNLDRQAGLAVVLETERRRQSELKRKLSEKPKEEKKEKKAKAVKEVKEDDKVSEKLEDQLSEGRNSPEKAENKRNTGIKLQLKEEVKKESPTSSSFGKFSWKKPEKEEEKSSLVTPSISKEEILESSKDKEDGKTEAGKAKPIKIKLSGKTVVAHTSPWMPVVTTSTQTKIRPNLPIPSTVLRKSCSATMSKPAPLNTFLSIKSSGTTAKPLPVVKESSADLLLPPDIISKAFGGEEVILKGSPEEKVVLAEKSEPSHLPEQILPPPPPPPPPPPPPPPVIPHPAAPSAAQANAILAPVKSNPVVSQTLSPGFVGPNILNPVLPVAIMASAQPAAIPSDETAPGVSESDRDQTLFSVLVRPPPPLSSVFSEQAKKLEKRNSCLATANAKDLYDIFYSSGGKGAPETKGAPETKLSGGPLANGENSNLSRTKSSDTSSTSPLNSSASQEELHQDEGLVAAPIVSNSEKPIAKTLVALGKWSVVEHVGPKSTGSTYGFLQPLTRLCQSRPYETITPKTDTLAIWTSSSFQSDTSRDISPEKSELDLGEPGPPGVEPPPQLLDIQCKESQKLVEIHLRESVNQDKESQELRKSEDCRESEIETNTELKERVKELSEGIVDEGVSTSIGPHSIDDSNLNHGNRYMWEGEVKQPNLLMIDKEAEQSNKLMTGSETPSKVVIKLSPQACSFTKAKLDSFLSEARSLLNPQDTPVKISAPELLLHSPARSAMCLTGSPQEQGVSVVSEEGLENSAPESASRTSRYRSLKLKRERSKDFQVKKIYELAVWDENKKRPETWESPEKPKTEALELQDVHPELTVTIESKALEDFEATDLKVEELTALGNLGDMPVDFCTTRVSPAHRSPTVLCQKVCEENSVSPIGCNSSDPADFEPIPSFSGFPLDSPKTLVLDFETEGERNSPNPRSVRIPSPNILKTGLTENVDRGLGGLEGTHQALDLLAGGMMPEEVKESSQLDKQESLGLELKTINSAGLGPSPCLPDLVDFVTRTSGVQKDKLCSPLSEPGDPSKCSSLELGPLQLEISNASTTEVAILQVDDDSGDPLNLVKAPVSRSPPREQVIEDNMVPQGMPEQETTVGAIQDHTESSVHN
UniProt Q6PL18: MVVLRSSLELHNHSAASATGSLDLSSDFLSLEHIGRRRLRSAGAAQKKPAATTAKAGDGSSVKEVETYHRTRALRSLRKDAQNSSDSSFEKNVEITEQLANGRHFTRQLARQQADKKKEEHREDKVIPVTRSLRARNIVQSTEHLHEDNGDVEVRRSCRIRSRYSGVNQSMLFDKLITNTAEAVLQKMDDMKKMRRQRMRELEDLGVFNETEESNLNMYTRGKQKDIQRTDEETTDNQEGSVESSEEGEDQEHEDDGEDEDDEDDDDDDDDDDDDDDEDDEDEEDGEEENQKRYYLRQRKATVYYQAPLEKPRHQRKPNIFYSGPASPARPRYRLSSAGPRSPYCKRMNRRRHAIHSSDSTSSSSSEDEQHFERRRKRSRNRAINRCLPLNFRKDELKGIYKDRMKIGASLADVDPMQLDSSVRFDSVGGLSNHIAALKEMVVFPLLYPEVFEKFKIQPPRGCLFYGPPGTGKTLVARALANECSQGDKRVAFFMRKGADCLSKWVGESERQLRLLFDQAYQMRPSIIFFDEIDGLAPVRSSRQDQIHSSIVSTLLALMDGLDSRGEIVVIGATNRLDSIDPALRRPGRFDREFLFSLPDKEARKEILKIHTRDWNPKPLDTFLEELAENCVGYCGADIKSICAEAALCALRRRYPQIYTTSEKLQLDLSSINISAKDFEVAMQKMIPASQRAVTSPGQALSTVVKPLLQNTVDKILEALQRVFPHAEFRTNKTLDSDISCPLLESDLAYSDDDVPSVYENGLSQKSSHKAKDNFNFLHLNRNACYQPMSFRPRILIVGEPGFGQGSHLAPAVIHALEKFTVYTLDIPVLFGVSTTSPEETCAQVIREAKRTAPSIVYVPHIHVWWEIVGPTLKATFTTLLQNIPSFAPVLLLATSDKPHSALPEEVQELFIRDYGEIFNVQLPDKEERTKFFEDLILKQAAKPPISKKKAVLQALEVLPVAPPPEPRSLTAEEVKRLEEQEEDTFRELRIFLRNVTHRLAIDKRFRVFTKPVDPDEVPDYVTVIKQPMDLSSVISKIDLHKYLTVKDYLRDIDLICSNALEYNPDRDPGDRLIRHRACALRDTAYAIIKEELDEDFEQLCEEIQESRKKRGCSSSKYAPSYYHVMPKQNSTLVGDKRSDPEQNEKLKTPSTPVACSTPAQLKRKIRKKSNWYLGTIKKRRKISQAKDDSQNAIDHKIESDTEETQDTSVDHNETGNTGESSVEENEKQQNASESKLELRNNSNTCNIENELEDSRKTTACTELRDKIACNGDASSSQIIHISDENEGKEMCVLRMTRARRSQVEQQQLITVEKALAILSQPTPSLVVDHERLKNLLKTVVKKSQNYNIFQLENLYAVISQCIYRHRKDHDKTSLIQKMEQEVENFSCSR
UniProt Q6PIY7: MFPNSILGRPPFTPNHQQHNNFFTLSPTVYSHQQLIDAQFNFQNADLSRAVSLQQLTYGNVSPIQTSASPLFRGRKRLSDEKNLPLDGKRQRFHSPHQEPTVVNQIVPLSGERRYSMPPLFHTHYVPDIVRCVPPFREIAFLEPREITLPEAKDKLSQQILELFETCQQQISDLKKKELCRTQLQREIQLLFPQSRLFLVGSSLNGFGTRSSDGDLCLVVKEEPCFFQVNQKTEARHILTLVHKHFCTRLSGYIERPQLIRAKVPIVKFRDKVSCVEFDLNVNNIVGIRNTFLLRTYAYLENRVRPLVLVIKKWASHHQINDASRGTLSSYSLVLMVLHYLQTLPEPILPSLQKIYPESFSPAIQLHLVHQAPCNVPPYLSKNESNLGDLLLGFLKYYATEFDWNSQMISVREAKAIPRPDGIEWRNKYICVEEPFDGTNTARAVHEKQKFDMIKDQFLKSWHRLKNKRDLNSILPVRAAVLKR
UniProt Q6IBW4: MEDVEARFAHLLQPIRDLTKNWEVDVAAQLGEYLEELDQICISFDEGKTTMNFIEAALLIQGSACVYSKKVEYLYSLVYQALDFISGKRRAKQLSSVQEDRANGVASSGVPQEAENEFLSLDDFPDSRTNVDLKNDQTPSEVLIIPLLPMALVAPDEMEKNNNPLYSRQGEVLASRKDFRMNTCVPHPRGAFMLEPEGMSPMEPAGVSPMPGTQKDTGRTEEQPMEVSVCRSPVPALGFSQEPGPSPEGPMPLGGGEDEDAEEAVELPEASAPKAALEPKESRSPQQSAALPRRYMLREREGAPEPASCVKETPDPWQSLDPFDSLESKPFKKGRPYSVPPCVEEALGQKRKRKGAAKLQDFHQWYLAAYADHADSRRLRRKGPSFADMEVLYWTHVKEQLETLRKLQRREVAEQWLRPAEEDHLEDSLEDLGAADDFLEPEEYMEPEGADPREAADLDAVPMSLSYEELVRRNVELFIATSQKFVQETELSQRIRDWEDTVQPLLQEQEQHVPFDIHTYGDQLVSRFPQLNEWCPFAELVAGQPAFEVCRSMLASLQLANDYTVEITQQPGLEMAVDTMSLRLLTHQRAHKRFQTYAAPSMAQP
UniProt Q5VUJ6: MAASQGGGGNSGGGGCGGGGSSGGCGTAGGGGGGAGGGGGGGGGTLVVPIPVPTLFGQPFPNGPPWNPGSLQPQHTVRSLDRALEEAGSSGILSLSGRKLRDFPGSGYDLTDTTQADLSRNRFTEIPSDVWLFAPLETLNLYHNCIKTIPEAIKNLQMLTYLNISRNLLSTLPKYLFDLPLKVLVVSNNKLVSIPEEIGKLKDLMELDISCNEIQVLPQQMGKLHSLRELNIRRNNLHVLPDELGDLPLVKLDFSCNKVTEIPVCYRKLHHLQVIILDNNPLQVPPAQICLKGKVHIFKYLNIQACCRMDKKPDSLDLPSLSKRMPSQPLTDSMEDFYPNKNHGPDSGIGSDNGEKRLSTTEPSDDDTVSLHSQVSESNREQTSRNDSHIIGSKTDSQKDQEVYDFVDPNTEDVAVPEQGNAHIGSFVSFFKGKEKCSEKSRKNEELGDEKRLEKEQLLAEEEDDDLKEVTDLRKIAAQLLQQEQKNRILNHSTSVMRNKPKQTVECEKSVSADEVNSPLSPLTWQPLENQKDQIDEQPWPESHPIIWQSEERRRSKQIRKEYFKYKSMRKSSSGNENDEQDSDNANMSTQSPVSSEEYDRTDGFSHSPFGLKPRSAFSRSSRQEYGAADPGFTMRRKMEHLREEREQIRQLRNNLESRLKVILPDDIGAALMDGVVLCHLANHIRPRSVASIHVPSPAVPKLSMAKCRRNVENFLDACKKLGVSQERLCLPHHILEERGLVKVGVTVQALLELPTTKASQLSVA
UniProt Q6PJT7: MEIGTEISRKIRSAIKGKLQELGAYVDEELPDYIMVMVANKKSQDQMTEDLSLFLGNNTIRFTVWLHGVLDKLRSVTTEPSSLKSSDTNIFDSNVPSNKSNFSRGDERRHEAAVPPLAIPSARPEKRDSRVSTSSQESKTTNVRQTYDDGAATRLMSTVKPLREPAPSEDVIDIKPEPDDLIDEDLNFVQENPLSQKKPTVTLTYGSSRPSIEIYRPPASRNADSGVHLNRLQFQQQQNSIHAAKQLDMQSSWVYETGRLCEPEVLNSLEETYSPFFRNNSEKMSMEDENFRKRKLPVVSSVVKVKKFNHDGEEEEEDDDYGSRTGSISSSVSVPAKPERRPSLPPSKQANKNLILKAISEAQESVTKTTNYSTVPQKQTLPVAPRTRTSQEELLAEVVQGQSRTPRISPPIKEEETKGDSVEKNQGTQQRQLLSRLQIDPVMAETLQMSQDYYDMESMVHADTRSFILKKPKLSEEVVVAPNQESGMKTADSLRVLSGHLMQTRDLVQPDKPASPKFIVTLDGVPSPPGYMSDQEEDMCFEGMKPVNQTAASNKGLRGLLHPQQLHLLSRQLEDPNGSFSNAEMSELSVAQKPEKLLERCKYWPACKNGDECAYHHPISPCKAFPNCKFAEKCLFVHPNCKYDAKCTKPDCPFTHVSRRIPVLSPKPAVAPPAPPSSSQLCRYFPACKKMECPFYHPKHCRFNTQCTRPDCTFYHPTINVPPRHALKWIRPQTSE

What follows are targets tested with COC(=O)C#Cc1ccccc1 [methyl 3-phenylpropiolate] (assay: log2 ratio of iodoacetamide-alkyne labeling of the cysteine site, DMSO over compound (competition); higher = stronger covalent engagement of the cysteine by the compound, active = 1 or more). Conditions: 500 µM; treatment time 1 h; system: HEK293T cell lysate.
Procedure, shortened: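 Reporter intensities give each cysteine's log2 competition ratio as the mean of control channels over the mean of compound channels. The samples were HEK293T lysate (2 mg/mL) given vehicle or electrophile (500 µM, 1 h, ambient temperature), then iodoacetamide alkyne (1 h), followed by click coupling to sCIP-TMT reagents, pooling, trypsin digestion overnight at 37 °C, streptavidin enrichment, acid elution, Orbitrap Eclipse LC-MS/MS with FAIMS and FragPipe quantification. Duplicate channels and three replicates were run, and cysteines quantified in only one replicate were discarded.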

Target | log2 ratio of iodoacetamide-alkyne labeling
UniProt Q6GMV3_C118 | inactive: 0.0568
ANKRD11 C1845 (UniProt Q6UB99) | active: 1.24
LARP1 C1054 (UniProt Q6PKG0) | inactive: 0.863
ZNF318 C2168 (UniProt Q5VUA4) | inactive: 0.167
THOC7 C38 (UniProt Q6I9Y2) | inactive: 0.0555
ATAD2 C631 (UniProt Q6PL18) | inactive: 0.934
UniProt Q6PIY7_C167 | inactive: -0.0469
WDR73 C259 (UniProt Q6P4I2) | inactive: 0.0163
LARP1 C953 (UniProt Q6PKG0) | inactive: -0.0257
NCAPH2 C342 (UniProt Q6IBW4) | active: 1.07
ARID2 C1549 (UniProt Q68CP9) | inactive: 0.434
UniProt Q5VUJ6_C145 | inactive: 0.408
LARP1 C238 (UniProt Q6PKG0) | inactive: 0.426
ZC3H14 C540 (UniProt Q6PJT7) | inactive: 0.465
ZNF318 C1903 (UniProt Q5VUA4) | inactive: 0.31
SAMD4B C226 (UniProt Q5PRF9) | inactive: 0.308

Individual results from above:
ATAD2 C631 (UniProt Q6PL18) | log2 ratio of iodoacetamide-alkyne labeling: inactive: 0.934
LARP1 C1054 (UniProt Q6PKG0) | log2 ratio of iodoacetamide-alkyne labeling: inactive: 0.863
